These are yes or no findings as the source states them, for the method shown. Binding seen in cells or lysates may run through a third protein. Some binding calls cover weakened binding; strength is not graded here. Where a sequence is shown, tags or fusion partners need not be part of it.
Experiments:
[1] = biological target: T1, NTRC:YFP-C (Arabidopsis thaliana) (UniProt O22229); test: split reporter; BiFC: YFP-N and YFP-C fusions (pSPYNE-35S, pSPYCE-35S) coexpressed in N. benthamiana leaves by Agrobacterium GV3101 infiltration; confocal imaging of YFP and chlorophyll autofluorescence 3 days after infiltration
T1 sequence: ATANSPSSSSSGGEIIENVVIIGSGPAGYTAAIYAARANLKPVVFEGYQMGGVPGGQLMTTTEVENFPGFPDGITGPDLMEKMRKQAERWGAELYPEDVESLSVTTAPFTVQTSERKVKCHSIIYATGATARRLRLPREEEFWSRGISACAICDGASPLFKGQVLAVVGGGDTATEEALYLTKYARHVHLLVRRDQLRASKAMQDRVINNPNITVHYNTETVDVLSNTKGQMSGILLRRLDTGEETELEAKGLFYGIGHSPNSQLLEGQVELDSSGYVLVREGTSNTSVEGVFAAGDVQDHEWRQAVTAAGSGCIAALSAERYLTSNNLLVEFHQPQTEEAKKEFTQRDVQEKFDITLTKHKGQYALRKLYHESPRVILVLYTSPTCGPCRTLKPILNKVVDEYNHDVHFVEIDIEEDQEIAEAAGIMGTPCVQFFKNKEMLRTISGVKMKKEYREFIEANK

[2] = biological target: T2, TRX-m1 (BiFC fusion) (Arabidopsis thaliana) (UniProt O48737); test: as above
T2 sequence: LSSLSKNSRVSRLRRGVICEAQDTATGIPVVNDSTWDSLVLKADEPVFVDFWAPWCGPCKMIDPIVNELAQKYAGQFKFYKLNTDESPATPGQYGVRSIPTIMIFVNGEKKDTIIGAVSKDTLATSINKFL

B1: PGR5 (BiFC fusion) (protein, UniProt Q9SL05 61-133)
chain: KNVNEGKGLFAPLVVVTRNLVGKKRFNQLRGKAIALHSQVITEFCKSIGADAKQRQGLIRLAKKNGERLGFLA
binding [1]: binds

B2: PGRL1:YFP-N (protein, UniProt Q8H112 61-324)
chain: ATTEQSGPVGGDNVDSNVLPYCSINKAEKKTIGEMEQEFLQALQSFYYDGKAIMSNEEFDNLKEELMWEGSSVVMLSSDEQRFLEASMAYVSGNPILNDEEYDKLKLKLKIDGSDIVSEGPRCSLRSKKVYSDLAVDYFKMLLLNVPATVVALGLFFFLDDITGFEITYIMELPEPYSFIFTWFAAVPVIVYLALSITKLIIKDFLILKGPCPNCGTENTSFFGTILSISSGGKTNTVKCTNCGTAMVYDSGSRLITLPEGSQA
binding [2]: binds | binding [1]: no binding

B3: NdhS (BiFC fusion) (protein, UniProt Q9T0A4 49-250)
chain: AMGKFNLWEVMGGRGLCNGEKGIEKELQRNIEDEQETSKAENNETERESDDSNLSFKVPEDGFEKEMMGLTGGFPGGEKGLKTFIEKNPPPPPPPPPAKQGSDASAVATDKKPKAPKLPLLMPGMIAIVKNQNSPYHMYCGIVQRITDGKAGVLFEGGNWDRLITFRLEELERREKGPPGKNPKSCILEPLIEQMQKEEAAP
binding [1]: binds
